Structures can show the parent of a compound that is named as a salt. At least one structure is not confirmed: it was looked up by name or label, or the drawing left a doubt.
Legend:
SIV = assay: Viral p27 in primary microglia isolated from macaques with SIV encephalitis; type: cell-based, pigtailed macaques; conditions: compared to untreated controls
HIV-1 = conditions: cell cultures infected with R5 and X4R5-HIV, HIV-G-pseudotyped and VSV-G-reporter viruses; cited from earlier work
[1] = test system: SIV/DeltaB670 and SIV/17E-Fr; assay: Incidence and severity of encephalitis in the accelerated SIV/macaque model; type: in vivo, pigtailed macaques (Macaca nemestrina); conditions: treated vs untreated macaques, p=0.015
From the text: Primate model for asymptomatic acute SIV infection. To identify events during acute and asymptomatic infection that lead to CNS disease a SIV/macaque model was developed in which the vast majority of infected animals develop CNS disease. […] These findings indicated the presence of mechanisms in the CNS that quell SIV replication and macrophage activation early after infection.
To identify events during acute and asymptomatic infection that lead to CNS disease in a SIV/macaque, a model was needed in which the vast majority of infected animals develop CNS disease. […] Virus replication and macrophage activation markers in the CNS declined in all macaques by 21 days p.i., despite high levee virus replication in the peripheral blood at this time. These findings indicated the presence of mechanisms in the CNS that quell SIV replication and macrophage activation early after infection.
Animals. Twenty-eight pigtailed macaques (Macaca nemestrina) were intravenously inoculated with a virus swarm, SIV/DeltaB670, and a cloned, neurovirulent virus, SIV/17Efr. Samples of brain tissue (basal ganglia and adjacent subcortical white matter) from macaques euthanized at 10 (n=6), 21′ (n=5), 56 (n=5) and 84 (n−=12) days p.i., and from uninfected control macaques (n=3 to 8) were fixed and embedded and […] sections were cut for immunohistochemical analysis of MAPKs. […]

CN(C)c1ccc(O)c2c1C[C@H]1C[C@H]3[C@H](N(C)C)C(O)=C(C(N)=O)C(=O)[C@@]3(O)C(O)=C1C2=O [Minocycline, [4S-(4a,4aa,5aa,12aa)-4,7-bis(dimethylamino)-1,4,4a,5,5a,6,11,12a-octahydro-3,10,12,12a-tetrahydroxy-1,11-dioxo-2-naphthacenecarboxamide]monohydrochloride]
viral p27 levels in cultures of primary microglia (SIV): reduced viral p27 levels | IC50 of HIV-1 replication (HIV-1): ~20 µg/mL | incidence of moderate and severe encephalitis [1]: decreased incidence
